Measured values published in the supplement of paper PMC5949888.
± gives the standard deviation of the averaged measurements. Most values lie at the floor of the assay. Slopes are relative: functional sequences can read slightly below zero.

The substances below were run on Saccharomyces cerevisiae PS128 hsf1 delta, HSF1(1-493) fusion (assay: growth estimate (transactivation domain function in HSF1 fusion, heat-shock survival) (a.u. (slope of normalised read count over time)); higher = stronger growth at 37°C, i.e. more transactivation activity). Conditions: library: random library.

Substance	growth estimate
SDAFRRLLGI	-0.25
YAVSVLNTCVNGVIHVRLES	< -0.25
VRKIEVSRI	< -0.25
FLRIESGICPRSYGTR	< -0.25
NDFDVPWECDLKSVS	-0.245
GPY	< -0.25
SQIILASKGSPEYR	< -0.25
ERMRLHYDTRV	< -0.25
GLVLICRCGSRESRGWPFGI	< -0.25
TCCSKHRQP	< -0.25
LNTRRIWELHQKVPWRPSLL	< -0.25
QTSQRLPWY	< -0.25
DVRMYADLSSNDQWR	< -0.25
ARRMTETT	< -0.25
RRGLPGVTRRKDWYKVADEA	< -0.25
CEA	< -0.25
KIVYALIGGDGLDERFQGSG	-0.246
GNVLL	< -0.25
RHRSLDSSA	< -0.25
KSVGQEAGALLLRTGSHGPI	< -0.25
FPGTWSRRVVP	< -0.25
HIRV	< -0.25
GWCCITD	< -0.25
DLQMAGGMGANVEVCREPFT	< -0.25
PVSHGMGLVYKYT	< -0.25

4 records drawn at random from those above:
Substance	growth estimate
SQIILASKGSPEYR	< -0.25
ERMRLHYDTRV	< -0.25
ARRMTETT	< -0.25
TCCSKHRQP	< -0.25

Continued.

Substance	growth estimate
AAH	< -0.25
RCQ	-0.163 ± 0.12
VCDATQTHYGQSVSTSHFKW	< -0.25
VRVNRQSDVGTAVNQA	< -0.25
AFMCYLKSLGFPLR	< -0.25
SGCVRPVIGSFMDNDYSTRL	< -0.25
GPGVPTWDLVSRVDSGNGGR	< -0.25
TIEILTLQVLCTVSRIVRRG	< -0.25
RSH	< -0.25
NVYCEGTRPTILISAGSPVG	< -0.25
SAVVPRVGGDSGARARVLVC	< -0.25
AAGVIR	< -0.25
KTKGEPPLREDAVRSPQKWA	< -0.25
SDRWGRRWR	< -0.25
HAKRLLYSR	< -0.25
VVGCLIGPESETT	< -0.25
STPRVELFARLHCT	< -0.25
LYQLLIIKPCGVGTSAPGEP	< -0.25
VTREEAVRLLEVLVMLSEPP	< -0.25
SMVTSSPLVPEYPRRKCES	< -0.25
YASSKVFLRKAAYLWLKLRG	< -0.25
LTSQL	< -0.25
VYGSAT	< -0.25
ATNALLS	< -0.25
LASEAVSIIPSSPSVGLRRA	-0.243

Substance	growth estimate
LKQGLCRLGSSRVDHLRLDV	< -0.25
HVTASGLRFVVAAFTANRTA	< -0.25
VRFMCEFVGRELCDCDS	< -0.25
MGVRPGHRRRCKNPLG	< -0.25
GVNVFRINVK	< -0.25
LYVHVINPA	< -0.25
HGDTNLGLRSDKIELPYFVT	< -0.25
DRARSVL	< -0.25
RSPQRRMKFAGSGV	< -0.25
DWFPYVAGDMAQRWAVVCLA	< -0.25
VQMYTREQARAGSSRWSSAH	< -0.25
WKYFFVYLQNISGYSGLKTQ	-0.246
GVLDDKSFTQIGRAAGELRD	< -0.25
SFLPLSFGET	< -0.25
DCVA	< -0.25
SEHFLQVVSPSPSR	< -0.25
IYIIQAGNFVGRRAGRARSS	< -0.25
GQSTARKWKGARISIDTYEL	< -0.25
KLQGTNTVKNFTRRVSAVTK	< -0.25
GDRTKGSGLCCRNLAGHWPQ	< -0.25
LLPIASWYIGPGVA	< -0.25
YIRNQEA	< -0.25
NGHTVRLVWGQVRLV	< -0.25
LDQSSGYTAFIYAPFTTPRA	< -0.25
ATHTRRMAHRPGDDETYAS	< -0.25

Substance	growth estimate
ETNS	< -0.25
PFSPHIHSDLDVVGGPA	< -0.25
NHSQDGLSVHV	< -0.25
AGEEAE	< -0.25
YSSVTVW	< -0.25
FCIGSATGQVMPDQM	< -0.25
MRLRTRYHVPWVKQLDKVLR	< -0.25
WRICTCVRIHQTIDMVLDAP	< -0.25
GRSSF	< -0.25
PEHLGNPHAQI	< -0.25
CRKVGYYRATDPRDPPRAVC	< -0.25
VSPNLGVRNISTVLRDTTTN	< -0.25
VYARGTTKLLALIITRPMVR	< -0.25
SDNPSR	< -0.25
GYFLFVPVVLSTSDSSLLTK	< -0.25
AQAVLRNRSVFSAGVY	< -0.25
GIRRTFVTVAGLCCKGATIL	< -0.25
RSAIWAFEPACGPPEFGGRF	0.115
GVRSRQNLGDPFGSRNRS	< -0.25
PSLFLGSCWFCRSYENPS	< -0.25
DGRHRKYSITLTEL	< -0.25
LLNWCGILFGNPEATIRGGV	< -0.25
VRPSLRRGQRHTRHGRVNHD	< -0.25
TSRIDLSQGSKGLGATMG	< -0.25
LTANISQRSRFTKSSFLWGG	< -0.25
